For 25 targets, melting temperature shift results are on record in the supplement of paper PMC12595434, “Development of retinoid nuclear receptor pathway antagonists through targeting aldehyde dehydrogenase 1A3” (iScience, 2025).

Sequences of proteins named here, by UniProt entry; tags and fusion partners are left off. A change or cut given only in a name is not applied to a line headed by its entry.
UniProt Q6YHK3: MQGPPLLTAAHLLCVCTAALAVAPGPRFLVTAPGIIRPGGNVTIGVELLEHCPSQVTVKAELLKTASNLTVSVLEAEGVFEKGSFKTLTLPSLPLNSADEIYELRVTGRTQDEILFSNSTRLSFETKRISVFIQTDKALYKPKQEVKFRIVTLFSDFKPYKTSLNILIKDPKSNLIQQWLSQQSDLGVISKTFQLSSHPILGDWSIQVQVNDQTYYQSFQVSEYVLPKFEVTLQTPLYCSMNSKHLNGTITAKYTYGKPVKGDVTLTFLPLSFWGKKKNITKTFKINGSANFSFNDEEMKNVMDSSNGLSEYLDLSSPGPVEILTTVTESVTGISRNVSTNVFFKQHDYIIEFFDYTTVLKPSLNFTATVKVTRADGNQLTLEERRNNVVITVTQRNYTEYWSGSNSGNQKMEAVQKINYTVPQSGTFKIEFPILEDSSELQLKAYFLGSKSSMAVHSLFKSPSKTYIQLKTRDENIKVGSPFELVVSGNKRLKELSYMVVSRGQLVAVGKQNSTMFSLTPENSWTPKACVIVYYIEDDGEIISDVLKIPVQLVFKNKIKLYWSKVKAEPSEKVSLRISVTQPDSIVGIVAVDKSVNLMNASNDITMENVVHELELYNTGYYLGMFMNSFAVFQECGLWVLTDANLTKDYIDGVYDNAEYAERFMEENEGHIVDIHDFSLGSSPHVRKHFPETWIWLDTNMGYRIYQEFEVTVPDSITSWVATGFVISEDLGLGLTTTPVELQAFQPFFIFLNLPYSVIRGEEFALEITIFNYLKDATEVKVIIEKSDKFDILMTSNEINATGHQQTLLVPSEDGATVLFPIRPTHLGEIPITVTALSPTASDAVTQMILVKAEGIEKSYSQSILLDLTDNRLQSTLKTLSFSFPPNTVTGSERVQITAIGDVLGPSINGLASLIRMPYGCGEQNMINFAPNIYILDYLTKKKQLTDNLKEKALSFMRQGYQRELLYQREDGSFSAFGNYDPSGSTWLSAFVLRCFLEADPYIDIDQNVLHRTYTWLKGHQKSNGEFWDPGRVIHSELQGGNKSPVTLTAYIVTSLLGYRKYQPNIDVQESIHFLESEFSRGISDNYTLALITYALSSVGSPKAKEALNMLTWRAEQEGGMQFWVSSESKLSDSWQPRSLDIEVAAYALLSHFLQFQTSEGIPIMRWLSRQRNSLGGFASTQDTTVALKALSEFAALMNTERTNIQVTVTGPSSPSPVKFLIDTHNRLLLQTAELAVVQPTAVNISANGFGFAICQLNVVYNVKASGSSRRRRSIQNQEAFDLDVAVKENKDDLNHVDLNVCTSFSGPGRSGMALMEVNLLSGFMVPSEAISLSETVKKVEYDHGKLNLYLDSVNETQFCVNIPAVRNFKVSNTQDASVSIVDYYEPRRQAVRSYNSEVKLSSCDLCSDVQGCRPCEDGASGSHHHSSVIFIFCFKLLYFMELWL
UniProt Q86UY8: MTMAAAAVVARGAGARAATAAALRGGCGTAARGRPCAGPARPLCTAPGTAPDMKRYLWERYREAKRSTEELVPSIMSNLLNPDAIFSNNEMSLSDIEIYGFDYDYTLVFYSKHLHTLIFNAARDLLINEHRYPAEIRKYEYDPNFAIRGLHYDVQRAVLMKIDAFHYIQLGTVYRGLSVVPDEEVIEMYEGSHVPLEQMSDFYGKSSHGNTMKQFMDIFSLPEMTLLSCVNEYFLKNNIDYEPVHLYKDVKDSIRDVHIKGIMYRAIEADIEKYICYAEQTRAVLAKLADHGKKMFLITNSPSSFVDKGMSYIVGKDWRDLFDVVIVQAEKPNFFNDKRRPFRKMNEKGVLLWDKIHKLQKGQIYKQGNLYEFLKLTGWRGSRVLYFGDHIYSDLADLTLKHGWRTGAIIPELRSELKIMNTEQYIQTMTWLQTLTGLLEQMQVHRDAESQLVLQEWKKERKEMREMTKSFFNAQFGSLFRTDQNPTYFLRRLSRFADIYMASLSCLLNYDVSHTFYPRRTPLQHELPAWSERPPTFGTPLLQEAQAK
UniProt Q6UB99: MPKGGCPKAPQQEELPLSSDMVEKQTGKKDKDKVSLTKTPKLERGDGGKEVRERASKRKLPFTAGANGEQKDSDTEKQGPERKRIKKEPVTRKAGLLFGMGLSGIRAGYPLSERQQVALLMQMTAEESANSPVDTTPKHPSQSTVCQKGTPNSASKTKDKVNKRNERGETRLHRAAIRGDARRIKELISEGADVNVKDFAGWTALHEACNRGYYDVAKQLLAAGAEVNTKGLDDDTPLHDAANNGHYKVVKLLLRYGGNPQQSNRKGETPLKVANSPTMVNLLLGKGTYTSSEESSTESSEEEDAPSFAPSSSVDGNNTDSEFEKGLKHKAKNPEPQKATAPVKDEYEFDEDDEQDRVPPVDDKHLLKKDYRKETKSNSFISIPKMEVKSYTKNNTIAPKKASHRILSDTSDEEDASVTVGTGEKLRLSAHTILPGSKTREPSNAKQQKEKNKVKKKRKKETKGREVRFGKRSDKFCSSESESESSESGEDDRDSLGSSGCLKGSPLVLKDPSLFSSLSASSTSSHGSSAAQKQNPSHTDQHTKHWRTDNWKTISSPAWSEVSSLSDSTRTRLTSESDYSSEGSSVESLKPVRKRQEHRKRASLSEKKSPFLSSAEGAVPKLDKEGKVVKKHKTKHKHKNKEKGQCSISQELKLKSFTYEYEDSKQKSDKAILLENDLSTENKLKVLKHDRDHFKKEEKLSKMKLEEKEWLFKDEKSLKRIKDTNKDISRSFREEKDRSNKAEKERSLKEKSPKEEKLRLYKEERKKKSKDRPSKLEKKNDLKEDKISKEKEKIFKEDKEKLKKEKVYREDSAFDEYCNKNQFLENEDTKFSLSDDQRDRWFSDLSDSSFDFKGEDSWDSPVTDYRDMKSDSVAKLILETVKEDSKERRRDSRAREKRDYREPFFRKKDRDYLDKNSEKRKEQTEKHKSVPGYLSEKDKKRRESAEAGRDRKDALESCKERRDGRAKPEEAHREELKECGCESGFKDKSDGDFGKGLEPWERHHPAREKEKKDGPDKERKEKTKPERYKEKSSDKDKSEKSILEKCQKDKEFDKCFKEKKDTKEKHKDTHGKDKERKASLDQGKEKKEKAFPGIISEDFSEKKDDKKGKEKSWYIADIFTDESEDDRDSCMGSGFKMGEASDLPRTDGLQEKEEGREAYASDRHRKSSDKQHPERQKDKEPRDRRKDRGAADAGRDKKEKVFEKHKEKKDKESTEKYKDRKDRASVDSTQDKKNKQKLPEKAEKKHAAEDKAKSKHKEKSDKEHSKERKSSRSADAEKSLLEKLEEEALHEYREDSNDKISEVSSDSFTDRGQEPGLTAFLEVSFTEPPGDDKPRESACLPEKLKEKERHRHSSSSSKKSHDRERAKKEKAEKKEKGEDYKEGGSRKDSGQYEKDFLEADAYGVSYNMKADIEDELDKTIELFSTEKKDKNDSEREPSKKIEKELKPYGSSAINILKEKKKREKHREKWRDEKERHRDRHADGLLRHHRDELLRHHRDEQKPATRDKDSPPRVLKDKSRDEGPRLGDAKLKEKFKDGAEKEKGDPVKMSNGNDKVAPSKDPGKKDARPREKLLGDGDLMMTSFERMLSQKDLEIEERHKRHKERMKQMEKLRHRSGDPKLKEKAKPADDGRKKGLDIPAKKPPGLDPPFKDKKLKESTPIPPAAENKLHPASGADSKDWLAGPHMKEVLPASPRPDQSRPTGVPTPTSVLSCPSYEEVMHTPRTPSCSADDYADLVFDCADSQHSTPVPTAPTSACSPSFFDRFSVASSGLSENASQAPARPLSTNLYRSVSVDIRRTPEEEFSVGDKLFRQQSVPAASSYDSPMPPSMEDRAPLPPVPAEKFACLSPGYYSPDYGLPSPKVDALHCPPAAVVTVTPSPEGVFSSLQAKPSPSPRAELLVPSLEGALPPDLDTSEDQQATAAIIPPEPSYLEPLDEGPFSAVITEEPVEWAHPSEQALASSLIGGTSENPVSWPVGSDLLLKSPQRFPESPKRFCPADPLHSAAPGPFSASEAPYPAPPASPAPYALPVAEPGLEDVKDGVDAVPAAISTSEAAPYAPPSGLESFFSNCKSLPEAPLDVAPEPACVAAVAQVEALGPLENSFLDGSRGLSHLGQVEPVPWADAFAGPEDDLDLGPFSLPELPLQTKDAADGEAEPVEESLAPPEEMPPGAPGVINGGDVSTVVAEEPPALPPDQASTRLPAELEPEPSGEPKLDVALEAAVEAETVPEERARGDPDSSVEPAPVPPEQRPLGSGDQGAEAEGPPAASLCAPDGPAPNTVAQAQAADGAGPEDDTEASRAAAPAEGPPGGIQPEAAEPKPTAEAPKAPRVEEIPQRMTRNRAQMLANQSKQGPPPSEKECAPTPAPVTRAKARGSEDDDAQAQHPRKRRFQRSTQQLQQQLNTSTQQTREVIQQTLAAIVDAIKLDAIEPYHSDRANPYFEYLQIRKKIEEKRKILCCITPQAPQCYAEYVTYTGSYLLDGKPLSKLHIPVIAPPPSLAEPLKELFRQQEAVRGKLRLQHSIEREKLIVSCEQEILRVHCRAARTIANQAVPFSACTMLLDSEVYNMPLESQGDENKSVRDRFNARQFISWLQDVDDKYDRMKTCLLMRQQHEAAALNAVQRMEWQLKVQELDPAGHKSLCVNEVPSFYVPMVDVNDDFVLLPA
UniProt Q6P9B6: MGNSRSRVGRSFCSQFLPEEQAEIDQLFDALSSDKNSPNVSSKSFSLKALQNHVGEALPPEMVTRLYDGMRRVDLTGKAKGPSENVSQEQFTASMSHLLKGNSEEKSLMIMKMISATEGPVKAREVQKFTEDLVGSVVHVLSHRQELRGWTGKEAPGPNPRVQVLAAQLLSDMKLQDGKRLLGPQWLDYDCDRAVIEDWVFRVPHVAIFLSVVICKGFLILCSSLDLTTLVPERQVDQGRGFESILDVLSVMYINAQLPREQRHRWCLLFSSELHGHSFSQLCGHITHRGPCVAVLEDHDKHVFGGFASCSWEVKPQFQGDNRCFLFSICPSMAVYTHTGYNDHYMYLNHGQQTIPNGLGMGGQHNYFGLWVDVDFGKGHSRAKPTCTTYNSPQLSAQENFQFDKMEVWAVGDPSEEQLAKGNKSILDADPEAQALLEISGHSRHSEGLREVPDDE
UniProt Q6XUX3: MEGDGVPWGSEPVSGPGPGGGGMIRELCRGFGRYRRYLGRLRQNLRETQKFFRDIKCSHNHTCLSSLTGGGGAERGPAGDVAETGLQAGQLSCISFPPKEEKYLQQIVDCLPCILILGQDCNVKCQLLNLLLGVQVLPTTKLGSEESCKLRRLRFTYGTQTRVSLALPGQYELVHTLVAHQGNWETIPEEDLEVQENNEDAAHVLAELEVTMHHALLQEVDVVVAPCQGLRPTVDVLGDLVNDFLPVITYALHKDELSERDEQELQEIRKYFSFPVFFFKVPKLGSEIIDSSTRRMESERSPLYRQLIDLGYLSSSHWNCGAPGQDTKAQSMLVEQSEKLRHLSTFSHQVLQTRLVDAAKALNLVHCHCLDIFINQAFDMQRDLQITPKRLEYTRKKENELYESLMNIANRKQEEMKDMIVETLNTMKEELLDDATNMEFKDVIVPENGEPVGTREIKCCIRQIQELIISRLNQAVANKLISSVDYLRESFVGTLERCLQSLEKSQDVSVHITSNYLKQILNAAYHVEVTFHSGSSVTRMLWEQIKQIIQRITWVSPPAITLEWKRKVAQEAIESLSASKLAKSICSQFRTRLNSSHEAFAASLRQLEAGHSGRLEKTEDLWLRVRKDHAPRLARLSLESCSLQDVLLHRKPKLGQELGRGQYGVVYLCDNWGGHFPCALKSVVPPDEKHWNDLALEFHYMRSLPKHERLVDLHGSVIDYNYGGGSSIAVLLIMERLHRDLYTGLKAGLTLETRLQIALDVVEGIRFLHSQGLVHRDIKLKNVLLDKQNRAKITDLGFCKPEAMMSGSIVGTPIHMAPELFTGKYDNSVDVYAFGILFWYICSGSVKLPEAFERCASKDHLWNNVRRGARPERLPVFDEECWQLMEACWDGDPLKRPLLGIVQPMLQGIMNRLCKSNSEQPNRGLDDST
UniProt Q7Z4G4: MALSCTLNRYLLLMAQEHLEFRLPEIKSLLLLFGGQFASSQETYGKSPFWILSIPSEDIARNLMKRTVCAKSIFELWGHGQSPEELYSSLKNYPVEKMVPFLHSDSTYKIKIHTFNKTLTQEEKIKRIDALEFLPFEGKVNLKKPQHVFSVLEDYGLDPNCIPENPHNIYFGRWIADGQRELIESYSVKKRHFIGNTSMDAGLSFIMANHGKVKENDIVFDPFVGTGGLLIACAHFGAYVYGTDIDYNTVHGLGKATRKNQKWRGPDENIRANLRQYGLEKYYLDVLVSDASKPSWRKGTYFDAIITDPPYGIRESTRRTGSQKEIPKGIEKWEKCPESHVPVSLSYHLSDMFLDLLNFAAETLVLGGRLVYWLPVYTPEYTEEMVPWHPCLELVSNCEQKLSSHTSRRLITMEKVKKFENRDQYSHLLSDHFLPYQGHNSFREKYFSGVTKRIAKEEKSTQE

Some of the results follow. The data scatter; read single values as rough.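 Tm was set to 64 °C where no melting was found, and many curves are irregular.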

Compound in this assay: CCc1cnccc1C(=O)Nc1cc2c(cc1F)NC(=O)CC2
The experiment in a line: melting temperature shift (DMSO Tm minus MBE1-treated Tm) in cellular thermal proteome profiling; higher = less thermal stabilization by MBE1 (negative = stabilized by MBE1). The note with it: A375.

For TMTC3 (UniProt Q6ZXV5), the melting temperature shift runs as follows: (MBE1 concentration: 100 nM) 0.525 °C; (MBE1 concentration: 1 uM) 0.891 °C.
For UniProt Q6PI98, in that order: 0.0833 °C and -0.852 °C.
Regarding CD109 (UniProt Q6YHK3), the melting temperature shift is, setting by setting: (MBE1 concentration: 100 nM) -2.12 °C; (MBE1 concentration: 1 uM) 1.39 °C.
For LPCAT2 (UniProt Q7L5N7), in that order: 0.623 °C and 0.751 °C.
ZC3H14 (UniProt Q6PJT7): the melting temperature shift reads like this: (MBE1 concentration: 100 nM) 0.0855 °C; (MBE1 concentration: 1 uM) 0.208 °C.
Regarding PPIP5K1 (UniProt Q6PFW1), the melting temperature shift runs as follows: (MBE1 concentration: 100 nM) -0.885 °C; (MBE1 concentration: 1 uM) 0.684 °C.
With UniProt Q7Z7L7, the melting temperature shift runs as follows: (MBE1 concentration: 100 nM) -0.778 °C; (MBE1 concentration: 1 uM) 0.677 °C.
NT5DC3 (UniProt Q86UY8): the melting temperature shift was -0.845 °C (MBE1 concentration: 100 nM) and 0.0268 °C (MBE1 concentration: 1 uM).
Consider ATF7IP (UniProt Q6VMQ6), for which the melting temperature shift reads like this: (MBE1 concentration: 100 nM) -1.13 °C; (MBE1 concentration: 1 uM) -0.295 °C.
As to UniProt Q71UM5, the melting temperature shift by setting is: (MBE1 concentration: 100 nM) -0.999 °C; (MBE1 concentration: 1 uM) 0.905 °C.
In the case of UniProt Q6UB99, the melting temperature shift was -5.98 °C (MBE1 concentration: 100 nM) and 0.807 °C (MBE1 concentration: 1 uM).
On to KCTD9 (UniProt Q7L273), for which the melting temperature shift is -1.22 °C (MBE1 concentration: 100 nM) and 0.635 °C (MBE1 concentration: 1 uM).
As for RAB11FIP1 (UniProt Q6WKZ4), the melting temperature shift reads like this: (MBE1 concentration: 100 nM) 0.305 °C; (MBE1 concentration: 1 uM) -0.116 °C.
As to LRSAM1 (UniProt Q6UWE0), the melting temperature shift by setting is: (MBE1 concentration: 100 nM) 0.165 °C; (MBE1 concentration: 1 uM) 0.134 °C.
For SH3BP5L (UniProt Q7L8J4), the melting temperature shift is 1.33 °C (MBE1 concentration: 100 nM) and -0.0671 °C (MBE1 concentration: 1 uM).
Turning to STRADA (UniProt Q7RTN6), the melting temperature shift (MBE1 concentration: 100 nM) was 4.52 °C and the melting temperature shift (MBE1 concentration: 1 uM) worked out at 0.983 °C.
Take METTL3 (UniProt Q86U44): the melting temperature shift was -0.524 °C (MBE1 concentration: 100 nM) and 0.684 °C (MBE1 concentration: 1 uM).
As to TLDC1 (UniProt Q6P9B6), the melting temperature shift by setting is: (MBE1 concentration: 100 nM) -0.055 °C; (MBE1 concentration: 1 uM) 0.36 °C.
For TXNDC11 (UniProt Q6PKC3), in that order: -0.852 °C and 1.07 °C.
UniProt Q6XUX3: the melting temperature shift came out at 0.989 °C (MBE1 concentration: 100 nM) and 0.14 °C (MBE1 concentration: 1 uM).
CCDC91 (UniProt Q7Z6B0): the melting temperature shift runs as follows: (MBE1 concentration: 100 nM) 0.294 °C; (MBE1 concentration: 1 uM) -0.0402 °C.
For UniProt Q7L804, in that order: 0.177 °C and 0 °C.
For TRMT11 (UniProt Q7Z4G4), in that order: -0.295 °C and 0.258 °C.
In the case of ZFYVE16 (UniProt Q7Z3T8), the melting temperature shift (MBE1 concentration: 100 nM) was -0.537 °C and the melting temperature shift (MBE1 concentration: 1 uM) was -0.0402 °C.
RSBN1L (UniProt Q6PCB5): the melting temperature shift (MBE1 concentration: 100 nM) was -1.08 °C and the melting temperature shift (MBE1 concentration: 1 uM) is 1.05 °C.
